Binding data for one substance are collected here from patent US20100113575A1.

Sequences of proteins named here, by UniProt entry; tags and fusion partners are left off. A change or cut given only in a name is not applied to a line headed by its entry.
UniProt Q8NBP7: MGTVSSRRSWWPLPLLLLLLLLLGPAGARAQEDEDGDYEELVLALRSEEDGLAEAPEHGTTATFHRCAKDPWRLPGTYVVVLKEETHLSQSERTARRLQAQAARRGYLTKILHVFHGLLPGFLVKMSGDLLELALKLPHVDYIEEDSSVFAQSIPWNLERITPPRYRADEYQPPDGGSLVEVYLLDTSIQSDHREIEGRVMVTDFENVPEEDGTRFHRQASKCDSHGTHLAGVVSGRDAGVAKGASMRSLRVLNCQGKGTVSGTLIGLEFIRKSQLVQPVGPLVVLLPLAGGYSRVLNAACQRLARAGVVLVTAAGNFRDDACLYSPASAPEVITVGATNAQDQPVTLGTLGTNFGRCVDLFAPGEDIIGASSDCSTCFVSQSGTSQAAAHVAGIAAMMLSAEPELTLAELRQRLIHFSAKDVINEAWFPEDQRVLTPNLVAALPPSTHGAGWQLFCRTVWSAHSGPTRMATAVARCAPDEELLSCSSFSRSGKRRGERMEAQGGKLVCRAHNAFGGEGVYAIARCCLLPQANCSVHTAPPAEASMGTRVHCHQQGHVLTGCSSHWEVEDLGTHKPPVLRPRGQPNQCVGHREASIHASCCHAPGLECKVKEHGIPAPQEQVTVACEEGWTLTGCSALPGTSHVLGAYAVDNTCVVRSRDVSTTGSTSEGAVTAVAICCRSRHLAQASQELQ

No constants are given. Whether binding was seen depends on the method and setting. In cells and extracts the contact can be indirect. Some entries that bind do so weakly or less than the wild type.

The target of assay [1] is processed WT PCSK9, mature chain (human) (UniProt Q8NBP7). The experiment in a line: co-purification over columns.
Assay [2] addresses processed D186A PCSK9, mature chain (human) (UniProt Q8NBP7). The experiment in a line: co-purification over columns, Coomassie gel.

“PCSK9 pro domain (from UniProt Q8NBP7 31-152)”: the binding result in assay [1] and in assay [2] was “binds” each time.
